Reference: PubChem BioAssay AID1259254 (NCATS, 2017)
Here is an unselected part of about 59,000 reagents tested. Of all reagents, about 1,550 (2.6%) got an active call. 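G2 share is only a proxy for re-replication; each gene was hit by three separate siRNAs, and active genes were retested.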 The raw values are shown without normalisation. A number with no mark means an inactive call. The numbers tell different reagents against one gene apart. Not given: the amount of reagent.

Aim: 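Gene knock-downs that lead to re-replication, shown by excess G2 DNA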 (primary screen)
System: human HCT116 colorectal cancer cells
Knock-down reagent: single siRNA against human genes
Duration: 3 days
Read-out: 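Imaged Hoechst DNA stain sorts each cell into a cycle phase by DNA amount; per plate, G2 fraction set to 0% for non-targeting and 100% for GMNN siRNA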
Scale: G2 robust z-score and G2 cells, % of GMNN control: higher = more G2 cells, more excess DNA replication; raw share of cells in G2: higher = larger share of cells with G2 DNA content
Call rule: 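An siRNA counts as active if its G2 robust z-score lies at least 5 MADs above the screen median; here such calls match roughly 38% of GMNN control or more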

Target gene	reagent no.	G2 robust z-score	G2 cells, % of GMNN control	raw share of cells in G2 (%)
TCTN3	1	-1.03	-4.29	2.8
TCTN3	2	-0.00492	2.93	5.21
TCTN3	3	-0.776	-2.49	2.43
EPHA5	1	-1.56	-7.99	2.97
EPHA5	2	-1.31	-6.21	3.32
EPHA5	3	0.785	8.49	7.02
CTSLP3	1	-0.122	2.11	4.44
CTSLP3	2	0.331	5.3	5.18
CTSLP3	3	0.0275	3.16	4.07
BCKDHA	1	0.91	9.37	7.91
BCKDHA	2	8.08 (active)	59.8	26.4
BCKDHA	3	-0.0653	2.51	4.92
GIMAP7	1	-0.466	-0.314	3.49
GIMAP7	2	-0.446	-0.173	2.9
GIMAP7	3	0.556	6.88	4.94
P2RY13	1	-1.01	-4.15	2
P2RY13	2	-0.852	-3.02	4.76
P2RY13	3	-0.323	0.698	4.76
ALPK2	1	1.65	14.6	10.1
ALPK2	2	1.77	15.4	10.8
ALPK2	3	-1.15	-5.14	2.04
C1RL	1	0.108	3.73	6.86
C1RL	2	1.87	16.1	10.6
C1RL	3	-0.831	-2.88	2.83
CNGA3	1	-0.544	-0.857	4.98
CNGA3	2	2.41	19.9	11.5
CNGA3	3	-0.132	2.04	5.17
IKBKG	1	-0.542	-0.846	5.33
IKBKG	2	-0.112	2.18	5.98
IKBKG	3	-0.384	0.266	3.77
PBRM1	1	0.262	4.81	6.16
PBRM1	2	-0.603	-1.27	5.87
PBRM1	3	-0.956	-3.76	2.77
NR6A1	1	-0.736	-2.21	4.94
NR6A1	2	-0.0126	2.88	5.53
NR6A1	3	1.27	11.9	7.89
CERNA2	1	0.306	5.12	5.59
CERNA2	2	0.663	7.63	6.02
CERNA2	3	-0.83	-2.88	2.31
SETD4	1	-0.268	1.08	3.99
SETD4	2	-0.128	2.07	5.14
SETD4	3	-0.389	0.23	3.27
BMI1	1	-0.854	-3.04	2.25
BMI1	2	2.5	20.5	14.5
BMI1	3	-0.48	-0.41	2.96
PARP11	1	-0.417	0.0312	6.44
PARP11	2	-0.188	1.65	5.02
PARP11	3	-0.936	-3.62	3.14
CD2BP2	1	-1.83	-9.94	2.56
CD2BP2	2	0.118	3.8	7.35
CD2BP2	3	-0.405	0.119	3.88
WHAMMP2	1	3.03	24.3	13
WHAMMP2	2	4.4	33.9	16.3
WHAMMP2	3	-0.287	0.947	3.44
LTAP1	1	5.38 (active)	40.8	19.8
LTAP1	2	-0.298	0.868	4.32
LTAP1	3	-0.832	-2.89	2.29
OGG1	1	0.173	4.19	4.63
OGG1	2	-0.408	0.0981	4.79
OGG1	3	0.514	6.59	7.69
PLA2G7	1	-0.338	0.591	3.72
PLA2G7	2	-0.198	1.58	6.69
PLA2G7	3	-0.484	-0.435	3.16
KRTAP4-6	1	9.58 (active)	70.4	27.5
KRTAP4-6	2	0.126	3.85	4.6
KRTAP4-6	3	-0.35	0.505	2.56
ABHD16A	1	0.446	6.11	7.84
ABHD16A	2	-0.567	-1.02	3.49
ABHD16A	3	0.0151	3.07	4.43
LAMTOR2	1	1.65	14.6	9.43
LAMTOR2	2	-0.388	0.241	4.64
LAMTOR2	3	6.34 (active)	47.6	18.3
DYNC1H1	1	2.69	21.9	12.8
DYNC1H1	2	6.43 (active)	48.2	22.6
DYNC1H1	3	-0.956	-3.76	2.8
RHNO1	1	0.421	5.93	6.08
RHNO1	2	-0.331	0.64	3.65
RHNO1	3	0.628	7.39	4.65
CHMP4B	1	0.998	9.99	7.94
CHMP4B	2	6.42 (active)	48.1	18.4
CHMP4B	3	2.56	21	10.2
ERO1A	1	2.17	18.2	14.4
ERO1A	2	1.77	15.4	9.32
ERO1A	3	0.1	3.67	5.19
ESX1	1	-1.37	-6.68	2.65
ESX1	2	-1.17	-5.29	2.28
ESX1	3	-1.02	-4.21	3.23

Records listed above called active, once more:
Target gene	reagent no.	G2 robust z-score	G2 cells, % of GMNN control	raw share of cells in G2 (%)
BCKDHA	2	8.08 (active)	59.8	26.4
LTAP1	1	5.38 (active)	40.8	19.8
KRTAP4-6	1	9.58 (active)	70.4	27.5
LAMTOR2	3	6.34 (active)	47.6	18.3
DYNC1H1	2	6.43 (active)	48.2	22.6
CHMP4B	2	6.42 (active)	48.1	18.4
